# Results reported in the supplement of paper PMC8104966.
# Some of the results follow. Repeats in this data set agree poorly, so a single value says little.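 U2OS cells expressing ACE2 were combined with U2OS cells expressing full-length spike, and imaging quantified fusion as the fraction of nuclei displaying both cell types' fluorescent markers. Non-toxic compounds with a fusion z-score under -3, i.e., over three standard deviations below the plate's DMSO wells, are called inhibitory hits.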
# Tested on: U2OS ACE2 x SARS-CoV-2 spike co-culture
# Test: cell-cell fusion (fraction fused) z-score vs plate DMSO control; higher = more fusion
# Conditions: 30 µM; 5 h; toxicity class: non-toxic, passed QC
row,Compound,cell-cell fusion (z-score)
1,[NH2][Pt]([NH2])([Cl])[Cl] [Cisplatin],inactive: 1.87
2,NCC(=O)O [glycine],inactive: 1.31
3,CS(=O)(=O)c1ccc([C@@H](O)[C@@H](CO)NC(=O)C(Cl)Cl)cc1,inactive: 2.66
4,CCCCCC(C)N.O=S(=O)(O)O (stereo not given),inactive: 2.72
5,O=C(O)C(O)C(O)C(=O)O.OCc1cccnc1 (stereo not given),inactive: 1.43
6,[Cl-].[NH2][Pt]([NH2])([Cl])[n+]1ccccc1,inactive: 2.16
7,CCCCCc1ccc(/C=C/[C@H](O)[C@@H](CO)NC)cc1.Cl,inactive: 0.598
8,O=C1OC(CN2CCOCC2)CN1/N=C/c1ccc([N+](=O)[O-])o1 (stereo not given),inactive: 0.449
9,CC(Oc1ccc(Cl)cc1Cl)C(=O)O (stereo not given),inactive: 4.42
10,Clc1ccc(CCC(Cn2ccnc2)Sc2c(Cl)cccc2Cl)cc1 (stereo not given),inactive: 2.53
11,CCc1cc(Cl)c(OC)c(C(=O)NCC2CCCN2CC)c1O.Cl (stereo not given),inactive: -1.16
12,Cn1cncc1[C@@](N)(c1ccc(Cl)cc1)c1ccc2c(c1)c(-c1cccc(Cl)c1)cc(=O)n2C [Tipifarnib (Zarnestra)],inactive: 0.77
13,COc1ccccc1O,inactive: 1.38
14,CC/C(=C(/CC)c1ccc(O)cc1)c1ccc(O)cc1 [Diethylstilbestrol],inactive: -1.55
15,C[N+](C)(C)CC=O.[Cl-] [Betaine aldehyde chloride],inactive: 2.02
16,CC(C)=CCOc1cc2oc(=O)ccc2cc1O,inactive: 1.65
17,N[C@H]1CONC1=O [L-Cycloserine],inactive: 2.13
18,N#Cc1c(O)c2c(-c3ccc(-c4ccccc4O)cc3)csc2[nH]c1=O,inactive: 0.722
19,COc1ccc([C@H]2Oc3cc(OC)cc(OC)c3C[C@H]2O)cc1,inactive: 1.29
20,O=C(NOC[C@H](O)CO)c1ccc(F)c(F)c1Nc1ccc(I)cc1F,inactive: 2.8
21,C[C@]12C=CC(=O)C=C1CCC1C2[C@@H](O)C[C@@]2(C)C1CC[C@]2(O)C(=O)CO (stereo not given in full),inactive: -0.134
22,CC[C@@]1(O)C(=O)OCc2c1cc1n(c2=O)Cc2cc3c(CN(C)C)c(O)ccc3nc2-1.Cl [Topotecan hydrochloride],inactive: 4.03
23,COc1cc2nccc(Oc3ccc(NC(=O)Nc4ccc(F)cc4F)c(F)c3)c2cc1OC,inactive: 2.21
24,C/C=C(/C(=C/C)c1ccc(O)cc1)c1ccc(O)cc1,inactive: 2.03
25,O=C(CCSCc1ccco1)NNC(=O)N1Cc2ccccc2Oc2ccc(Cl)cc21,inactive: -0.828

# Grouped by structure: the compounds so far with an aryl methoxy group
row,Compound,cell-cell fusion (z-score)
11,CCc1cc(Cl)c(OC)c(C(=O)NCC2CCCN2CC)c1O.Cl (stereo not given),inactive: -1.16
13,COc1ccccc1O,inactive: 1.38
19,COc1ccc([C@H]2Oc3cc(OC)cc(OC)c3C[C@H]2O)cc1,inactive: 1.29
23,COc1cc2nccc(Oc3ccc(NC(=O)Nc4ccc(F)cc4F)c(F)c3)c2cc1OC,inactive: 2.21
